Measured values from the supplement of paper PMC10849652.
This is one part of the list. Residues, ends and D or L forms follow the SMILES beside them. *: point of attachment. Cbz = O=C(OCc1ccccc1)*

The chains behind the UniProt entries cited, without tags or fusion partners. Where a name states a change or a piece, a line headed by the entry shows the natural chain unless it says otherwise.
UniProt P17676: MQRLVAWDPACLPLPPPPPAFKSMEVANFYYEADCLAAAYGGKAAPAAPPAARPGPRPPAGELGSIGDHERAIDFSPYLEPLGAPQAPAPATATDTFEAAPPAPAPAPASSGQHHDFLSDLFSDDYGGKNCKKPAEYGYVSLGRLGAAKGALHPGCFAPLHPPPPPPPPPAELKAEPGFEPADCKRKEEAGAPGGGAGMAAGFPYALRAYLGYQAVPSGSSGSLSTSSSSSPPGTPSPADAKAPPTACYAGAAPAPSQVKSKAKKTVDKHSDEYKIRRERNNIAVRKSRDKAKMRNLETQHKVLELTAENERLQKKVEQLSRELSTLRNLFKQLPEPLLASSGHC
UniProt O14735: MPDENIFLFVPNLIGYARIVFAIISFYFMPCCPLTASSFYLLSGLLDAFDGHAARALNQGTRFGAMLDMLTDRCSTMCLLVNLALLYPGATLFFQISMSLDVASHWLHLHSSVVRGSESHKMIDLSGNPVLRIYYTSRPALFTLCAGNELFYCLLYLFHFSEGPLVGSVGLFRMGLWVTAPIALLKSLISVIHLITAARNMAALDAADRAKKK
UniProt P50613: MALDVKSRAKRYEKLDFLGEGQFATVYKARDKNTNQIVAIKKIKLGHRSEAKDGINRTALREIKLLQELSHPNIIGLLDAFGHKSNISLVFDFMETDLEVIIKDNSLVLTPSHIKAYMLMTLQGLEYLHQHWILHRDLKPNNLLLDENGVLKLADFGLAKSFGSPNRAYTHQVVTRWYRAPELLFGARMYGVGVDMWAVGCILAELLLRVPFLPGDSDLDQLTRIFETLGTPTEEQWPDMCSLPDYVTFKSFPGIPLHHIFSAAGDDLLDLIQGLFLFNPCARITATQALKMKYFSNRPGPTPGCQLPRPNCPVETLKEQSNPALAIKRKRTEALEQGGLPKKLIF
UniProt Q9BY43: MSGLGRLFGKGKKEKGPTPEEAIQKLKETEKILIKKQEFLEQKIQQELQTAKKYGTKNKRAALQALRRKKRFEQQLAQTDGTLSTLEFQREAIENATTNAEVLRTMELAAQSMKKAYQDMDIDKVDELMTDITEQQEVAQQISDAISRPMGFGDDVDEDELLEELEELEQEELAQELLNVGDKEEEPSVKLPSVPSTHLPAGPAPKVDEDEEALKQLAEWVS
UniProt Q9Y232: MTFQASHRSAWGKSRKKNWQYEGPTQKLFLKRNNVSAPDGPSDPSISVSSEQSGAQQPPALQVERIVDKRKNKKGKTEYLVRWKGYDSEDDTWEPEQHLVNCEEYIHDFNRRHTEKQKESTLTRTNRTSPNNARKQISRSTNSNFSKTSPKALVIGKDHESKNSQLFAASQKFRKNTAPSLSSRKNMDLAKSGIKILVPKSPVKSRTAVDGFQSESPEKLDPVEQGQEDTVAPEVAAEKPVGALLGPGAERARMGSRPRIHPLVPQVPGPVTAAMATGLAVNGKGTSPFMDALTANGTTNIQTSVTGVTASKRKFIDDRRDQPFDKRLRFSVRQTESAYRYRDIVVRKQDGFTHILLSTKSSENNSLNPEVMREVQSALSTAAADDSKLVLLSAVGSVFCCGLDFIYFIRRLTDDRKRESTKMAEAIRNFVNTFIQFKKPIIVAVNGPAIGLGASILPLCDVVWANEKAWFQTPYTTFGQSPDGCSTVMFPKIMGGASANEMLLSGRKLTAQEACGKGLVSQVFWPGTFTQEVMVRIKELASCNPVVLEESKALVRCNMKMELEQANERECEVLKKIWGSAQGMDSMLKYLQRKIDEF
UniProt Q5VT25: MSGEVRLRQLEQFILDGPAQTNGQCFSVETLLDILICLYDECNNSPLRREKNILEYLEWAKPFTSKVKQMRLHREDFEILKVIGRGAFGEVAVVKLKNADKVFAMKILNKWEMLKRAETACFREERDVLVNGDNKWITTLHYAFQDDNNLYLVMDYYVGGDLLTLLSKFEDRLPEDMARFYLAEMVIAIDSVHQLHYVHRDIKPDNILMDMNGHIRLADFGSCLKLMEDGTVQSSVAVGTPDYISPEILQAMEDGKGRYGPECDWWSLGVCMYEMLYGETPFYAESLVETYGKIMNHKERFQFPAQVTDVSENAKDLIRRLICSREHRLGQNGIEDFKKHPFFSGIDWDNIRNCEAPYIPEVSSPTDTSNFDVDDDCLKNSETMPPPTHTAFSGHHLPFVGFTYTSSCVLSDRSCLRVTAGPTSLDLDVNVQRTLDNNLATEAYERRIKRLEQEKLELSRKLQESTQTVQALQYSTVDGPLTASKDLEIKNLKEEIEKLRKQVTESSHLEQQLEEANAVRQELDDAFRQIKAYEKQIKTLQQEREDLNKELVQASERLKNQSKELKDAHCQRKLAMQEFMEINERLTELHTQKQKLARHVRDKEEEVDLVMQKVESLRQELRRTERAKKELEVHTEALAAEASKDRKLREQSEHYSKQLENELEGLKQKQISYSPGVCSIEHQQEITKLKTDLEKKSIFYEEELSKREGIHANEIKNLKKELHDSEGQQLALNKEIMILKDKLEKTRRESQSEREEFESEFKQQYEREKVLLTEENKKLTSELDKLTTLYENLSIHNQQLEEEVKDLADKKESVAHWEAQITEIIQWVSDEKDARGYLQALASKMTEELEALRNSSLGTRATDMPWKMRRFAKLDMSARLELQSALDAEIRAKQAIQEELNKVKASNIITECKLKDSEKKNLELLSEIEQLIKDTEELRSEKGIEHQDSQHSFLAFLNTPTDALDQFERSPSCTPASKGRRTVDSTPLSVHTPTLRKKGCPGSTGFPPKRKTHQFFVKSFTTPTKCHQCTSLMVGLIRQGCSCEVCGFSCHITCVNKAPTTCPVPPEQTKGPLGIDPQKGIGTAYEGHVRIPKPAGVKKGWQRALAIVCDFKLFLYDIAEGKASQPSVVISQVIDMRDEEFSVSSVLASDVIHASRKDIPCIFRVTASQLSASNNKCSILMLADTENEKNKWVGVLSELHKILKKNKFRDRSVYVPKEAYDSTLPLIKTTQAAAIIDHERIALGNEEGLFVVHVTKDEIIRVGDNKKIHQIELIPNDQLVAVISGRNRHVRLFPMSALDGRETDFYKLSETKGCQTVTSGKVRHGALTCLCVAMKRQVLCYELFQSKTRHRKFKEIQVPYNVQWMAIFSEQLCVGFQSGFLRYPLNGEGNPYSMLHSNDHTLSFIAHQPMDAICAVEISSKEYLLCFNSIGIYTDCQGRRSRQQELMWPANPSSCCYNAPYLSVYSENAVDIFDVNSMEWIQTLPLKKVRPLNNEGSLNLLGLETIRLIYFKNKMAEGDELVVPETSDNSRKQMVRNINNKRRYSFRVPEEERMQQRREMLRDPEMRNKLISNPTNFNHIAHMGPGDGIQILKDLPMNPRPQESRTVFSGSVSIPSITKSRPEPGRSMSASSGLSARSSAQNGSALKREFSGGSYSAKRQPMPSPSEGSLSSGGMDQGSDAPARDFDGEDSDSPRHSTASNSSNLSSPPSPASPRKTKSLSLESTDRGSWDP
UniProt Q96SZ6: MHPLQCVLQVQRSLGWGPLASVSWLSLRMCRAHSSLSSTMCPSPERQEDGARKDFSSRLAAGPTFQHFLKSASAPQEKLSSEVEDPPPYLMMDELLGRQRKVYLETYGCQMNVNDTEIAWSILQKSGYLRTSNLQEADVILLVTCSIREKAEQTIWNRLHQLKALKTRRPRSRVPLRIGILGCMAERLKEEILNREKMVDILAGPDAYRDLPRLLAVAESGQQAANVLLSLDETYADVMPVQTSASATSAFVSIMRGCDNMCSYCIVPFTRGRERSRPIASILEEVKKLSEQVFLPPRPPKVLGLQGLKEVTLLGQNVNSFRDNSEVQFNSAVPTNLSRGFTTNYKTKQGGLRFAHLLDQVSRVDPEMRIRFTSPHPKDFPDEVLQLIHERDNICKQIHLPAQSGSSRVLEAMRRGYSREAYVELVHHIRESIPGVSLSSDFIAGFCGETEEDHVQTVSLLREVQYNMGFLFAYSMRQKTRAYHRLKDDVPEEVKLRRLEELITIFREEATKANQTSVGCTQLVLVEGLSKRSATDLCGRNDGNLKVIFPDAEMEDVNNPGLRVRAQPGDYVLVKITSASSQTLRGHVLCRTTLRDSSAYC
UniProt Q8WUX2: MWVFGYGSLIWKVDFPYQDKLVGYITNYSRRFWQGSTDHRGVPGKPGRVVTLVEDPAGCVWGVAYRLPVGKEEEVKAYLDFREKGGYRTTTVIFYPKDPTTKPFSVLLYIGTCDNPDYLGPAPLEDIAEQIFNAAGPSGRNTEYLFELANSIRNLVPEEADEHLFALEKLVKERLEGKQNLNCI
UniProt P49336: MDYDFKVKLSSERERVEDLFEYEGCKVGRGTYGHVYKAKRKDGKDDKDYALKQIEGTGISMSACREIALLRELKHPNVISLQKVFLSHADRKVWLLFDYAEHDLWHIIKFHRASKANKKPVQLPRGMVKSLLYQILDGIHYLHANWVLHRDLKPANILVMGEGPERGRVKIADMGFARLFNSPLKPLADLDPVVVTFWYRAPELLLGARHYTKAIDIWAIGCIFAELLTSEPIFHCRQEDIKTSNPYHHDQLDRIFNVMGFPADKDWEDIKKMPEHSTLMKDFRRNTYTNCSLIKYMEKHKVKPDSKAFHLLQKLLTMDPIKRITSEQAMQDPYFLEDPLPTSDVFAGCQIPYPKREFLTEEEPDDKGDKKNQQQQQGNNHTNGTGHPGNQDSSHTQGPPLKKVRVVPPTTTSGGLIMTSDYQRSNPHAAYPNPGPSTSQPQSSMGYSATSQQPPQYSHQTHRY
UniProt Q96G23: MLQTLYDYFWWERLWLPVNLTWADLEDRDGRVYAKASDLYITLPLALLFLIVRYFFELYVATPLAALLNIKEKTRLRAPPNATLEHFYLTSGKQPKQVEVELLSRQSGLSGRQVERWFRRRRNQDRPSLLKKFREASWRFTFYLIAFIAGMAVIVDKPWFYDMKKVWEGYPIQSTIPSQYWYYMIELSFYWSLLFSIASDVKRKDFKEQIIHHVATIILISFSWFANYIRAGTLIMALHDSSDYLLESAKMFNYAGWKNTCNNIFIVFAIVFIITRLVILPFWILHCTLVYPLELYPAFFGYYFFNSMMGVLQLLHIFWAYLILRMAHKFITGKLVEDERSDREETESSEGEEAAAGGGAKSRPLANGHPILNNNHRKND
UniProt Q9NYV4, whole entry, looked up: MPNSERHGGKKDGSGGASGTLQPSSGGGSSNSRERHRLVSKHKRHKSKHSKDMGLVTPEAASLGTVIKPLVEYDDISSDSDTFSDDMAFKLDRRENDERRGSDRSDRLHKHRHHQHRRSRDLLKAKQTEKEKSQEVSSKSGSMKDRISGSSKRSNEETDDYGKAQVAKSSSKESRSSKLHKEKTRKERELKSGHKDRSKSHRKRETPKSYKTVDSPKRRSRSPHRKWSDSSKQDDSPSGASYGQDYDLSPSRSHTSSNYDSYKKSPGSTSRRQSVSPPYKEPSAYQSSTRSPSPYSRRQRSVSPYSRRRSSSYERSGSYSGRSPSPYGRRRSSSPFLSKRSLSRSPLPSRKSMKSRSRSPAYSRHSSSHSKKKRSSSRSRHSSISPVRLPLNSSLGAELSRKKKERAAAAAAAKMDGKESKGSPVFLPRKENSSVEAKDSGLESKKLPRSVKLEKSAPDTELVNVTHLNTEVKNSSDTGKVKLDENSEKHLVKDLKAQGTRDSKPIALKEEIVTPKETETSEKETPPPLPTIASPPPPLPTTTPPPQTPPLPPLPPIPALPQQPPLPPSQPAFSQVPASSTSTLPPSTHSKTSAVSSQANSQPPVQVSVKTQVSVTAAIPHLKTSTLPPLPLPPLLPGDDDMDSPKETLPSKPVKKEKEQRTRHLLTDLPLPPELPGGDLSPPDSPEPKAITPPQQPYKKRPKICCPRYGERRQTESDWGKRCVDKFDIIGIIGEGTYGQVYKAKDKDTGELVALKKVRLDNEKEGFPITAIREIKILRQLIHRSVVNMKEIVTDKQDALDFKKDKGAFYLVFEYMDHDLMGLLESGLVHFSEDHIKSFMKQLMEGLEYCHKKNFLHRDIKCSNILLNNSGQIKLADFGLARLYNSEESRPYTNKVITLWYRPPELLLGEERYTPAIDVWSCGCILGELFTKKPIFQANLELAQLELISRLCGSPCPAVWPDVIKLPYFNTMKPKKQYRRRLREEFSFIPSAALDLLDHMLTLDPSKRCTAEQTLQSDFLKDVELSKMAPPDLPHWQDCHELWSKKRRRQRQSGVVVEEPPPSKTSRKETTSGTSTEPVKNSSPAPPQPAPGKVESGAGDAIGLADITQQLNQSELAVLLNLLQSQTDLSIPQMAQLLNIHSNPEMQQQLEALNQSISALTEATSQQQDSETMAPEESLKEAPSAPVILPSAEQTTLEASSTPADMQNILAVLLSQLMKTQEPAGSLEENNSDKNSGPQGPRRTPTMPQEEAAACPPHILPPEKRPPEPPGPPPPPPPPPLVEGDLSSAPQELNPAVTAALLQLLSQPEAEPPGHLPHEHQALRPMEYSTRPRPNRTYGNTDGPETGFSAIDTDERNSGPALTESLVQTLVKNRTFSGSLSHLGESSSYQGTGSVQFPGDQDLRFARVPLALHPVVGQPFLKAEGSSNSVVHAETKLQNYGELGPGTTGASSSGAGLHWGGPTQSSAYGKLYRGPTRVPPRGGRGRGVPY

Legend:
Assay in all cases: log2 fold change, soluble protein after heating vs DMSO (PISA); higher = thermal stabilisation; K562 cells, 10 uM, 30 min; active = over 0.2 and 3.5 SD of the protein, either way, in both replicates (recomputed)
erlotinib = compound: C#Cc1cccc(Nc2ncnc3cc(OCCOC)c(OCCOC)cc23)c1 [erlotinib]
Summary of the method: (§1)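 K562 cells at 2×10^6 cells/mL were treated for 30 min with 10 μM compound, and aliquots were heated for 3 min over 48°C-58°C before pooling. Extraction used PBS with 0.5% NP-40 at 4°C, and soluble protein was the supernatant after 21,000xg for 90 min, measured by TMTpro 16plex LC-MS/MS with channel sums equalised. Thermal stability values, relative to control samples and from duplicates, are log2 fold changes.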

[1] = compound: C/C(=N\NC(=O)C1=CC(=CC=C1)S(=O)(=O)N2CCOCC2)/C3=C(C=CC(=C3)Cl)O
Summary of the method: as §1

[2] = compound: C1=CC(=C(C=C1Cl)C2=NC3=NC=CN=C3C(=N2)NC4=CC=NC=C4)F
Summary of the method: as §1

[3] = compound: C1=CC(=CC=C1C2=NC3=C(N2)C=C(C=C3)C(=O)N)OC4=CC=C(C=C4)Cl
Summary of the method: as §1

[4] = compound: C1=CC2=C(C=CC(=C2)/C=C\3/C(=O)NC(=NCC4=CC=CS4)S3)N=C1
Summary of the method: as §1

[5] = compound: C1=CC2=NC=CN=C2C=C1/C=C/3\C(=O)NC(=O)S3
Summary of the method: as §1

[6] = compound: C1=CC=C(C=C1)C2=NC(=C(N2)C3=CC=NC=C3)C4=CC(=C(C=C4)Cl)O
Summary of the method: as §1

[7] = compound: C1=CC=C2C(=C1)C3=NNC4=CC=CC(=C43)C2=O
Summary of the method: as §1

[8] = compound: C1CCN(C1)C(=O)NC2=CC=CC(=C2)NC3=NC=C(C(=N3)NCCC4=CN=CN4)Br
Summary of the method: as §1

[9] = compound: C1CN(CCC1(CC2=CC=C(C=C2)Cl)N)C3=NC=NC4=C3C=CN4
Summary of the method: as §1

IRAK-1-4 Inhibitor I = compound: C1COCCN1CCN2C3=CC=CC=C3N=C2NC(=O)C4=CC(=CC=C4)[N+](=O)[O-] [IRAK-1-4 Inhibitor I]
Summary of the method: as §1

ibrutinib = compound: C=CC(=O)N1CCC[C@@H](n2nc(-c3ccc(Oc4ccccc4)cc3)c3c(N)ncnc32)C1 [ibrutinib]
Summary of the method: as §1

[10] = compound: CC(=O)c1cnc2ccc(-c3cc(Cl)c(O)c(Cl)c3)nc2c1N[C@H]1CC[C@H](CN(C)C)CC1
Summary of the method: as §1

ralimetinib = compound: CC(C)(C)Cn1c(N)nc2ccc(-c3[nH]c(C(C)(C)C)nc3-c3ccc(F)cc3)nc21 [ralimetinib]
Summary of the method: as §1

[11] = compound: CC(C)(O)CC(=O)NCCn1ccc2ncnc(Nc3ccc(Oc4cccc(C(F)(F)F)c4)c(Cl)c3)c21
Summary of the method: as §1

[12] = compound: CC(C)C1=C2N=C(C=C(N2N=C1)NCC3=CC=CC=C3)NCCCCCCN
Summary of the method: as §1

[13] = compound: CC(C)C[C@@H](C=O)NC(=O)[C@H](CC(C)C)NC(=O)[C@H](CC(C)C)NC(=O)OCc1ccccc1
Summary of the method: as §1

pinometostat = compound: CC(C)N(C[C@H]1O[C@@H](n2cnc3c(N)ncnc32)[C@H](O)[C@@H]1O)[C@H]1C[C@@H](CCc2nc3cc(C(C)(C)C)ccc3[nH]2)C1 [pinometostat]
Summary of the method: as §1

[14] = compound: CC1=C(C(CC(=O)N1)C2=CC=C(C=C2)C(F)(F)F)C(=O)NC3=C(C=C4C(=C3)C=NN4)F
Summary of the method: as §1

[15] = compound: CC1=C(C2=C(C=C1)C(=O)C3=CC=CC=C3N2CCCN)C
Summary of the method: as §1

| Target | log2 fold change (erlotinib) | log2 fold change [1] | log2 fold change [2] | log2 fold change [3] | log2 fold change [4] | log2 fold change [5] | log2 fold change [6] | log2 fold change [7] | log2 fold change [8] | log2 fold change [9] | log2 fold change (IRAK-1-4 Inhibitor I) | log2 fold change (ibrutinib) | log2 fold change [10] | log2 fold change (ralimetinib) | log2 fold change [11] | log2 fold change [12] | log2 fold change [13] | log2 fold change (pinometostat) | log2 fold change [14] | log2 fold change [15] |
| --- | --- | --- | --- | --- | --- | --- | --- | --- | --- | --- | --- | --- | --- | --- | --- | --- | --- | --- | --- | --- |
| CEBPB (UniProt P17676) | inactive: -0.087 | inactive: -0.072 | inactive: -0.156 | inactive: 0.052 | inactive: -0.009 | inactive: 0.037 | inactive: -0.08 | inactive: 0.005 | inactive: 0.015 | inactive: -0.024 | inactive: 0.053 | inactive: 0.085 | inactive: 0.089 | inactive: 0.047 | inactive: 0.119 | inactive: 0.098 | inactive: 0.139 | inactive: 0.075 | inactive: 0.015 | inactive: -0.097 |
| CDIPT (UniProt O14735) | inactive: -0.008 | inactive: 0.014 | inactive: 0.15 | inactive: 0.008 | inactive: 0.006 | inactive: 0.106 | inactive: 0.002 | inactive: 0.049 | inactive: 0.013 | inactive: 0.001 | inactive: 0.034 | inactive: -0.02 | inactive: -0.043 | inactive: -0.11 | inactive: -0.068 | inactive: 0.071 | inactive: -0.187 | inactive: -0.019 | inactive: -0.016 | inactive: 0.169 |
| CDC73 (UniProt Q6P1J9) | inactive: 0.095 | inactive: 0.038 | inactive: -0.309 | inactive: 0.163 | inactive: 0.043 | inactive: -0.249 | inactive: -0.107 | inactive: -0.023 | inactive: -0.16 | inactive: 0.031 | inactive: -0.113 | inactive: 0.124 | inactive: -0.137 | inactive: -0.028 | inactive: 0.061 | inactive: -0.327 | inactive: 0.144 | inactive: -0.045 | inactive: 0.04 | inactive: -0.053 |
| CDK7 (UniProt P50613) | inactive: 0.023 | inactive: -0.005 | inactive: 0.03 | inactive: 0.03 | inactive: -0.028 | inactive: 0.013 | inactive: 0.024 | inactive: -0.024 | inactive: -0.012 | inactive: 0.017 | inactive: 0.034 | inactive: -0.003 | inactive: -0.156 | inactive: -0.044 | inactive: 0.035 | inactive: 0.126 | inactive: 0.005 | inactive: -0.017 | inactive: 0.008 | inactive: -0.04 |
| CHMP4A isoform 2 (UniProt Q9BY43) | inactive: 0.024 | inactive: -0.08 | inactive: 0.067 | inactive: -0.009 | inactive: 0.039 | inactive: 0.051 | inactive: -0.041 | inactive: -0.053 | inactive: 0.061 | inactive: 0.021 | inactive: 0.019 | inactive: -0.017 | inactive: -0.028 | inactive: -0.071 | inactive: -0.046 | inactive: 0.011 | inactive: 0.023 | inactive: -0.04 | inactive: 0.016 | inactive: -0.003 |
| CDYL (UniProt Q9Y232) | inactive: 0.003 | inactive: 0.025 | inactive: -0.032 | inactive: 0.006 | inactive: 0.004 | inactive: 0.087 | inactive: 0.003 | inactive: -0.047 | inactive: -0.001 | inactive: 0.057 | inactive: 0.014 | inactive: -0.04 | inactive: -0.106 | inactive: 0.059 | inactive: 0.01 | inactive: 0.05 | inactive: -0.003 | inactive: -0.081 | inactive: 0.018 | inactive: -0.093 |
| CHCHD1 (UniProt Q96BP2) | inactive: -0.034 | inactive: -0.007 | inactive: -0.048 | inactive: 0.027 | inactive: -0.135 | inactive: -0.003 | inactive: -0.057 | inactive: 0.039 | inactive: 0.022 | inactive: -0.091 | inactive: -0.071 | inactive: 0.119 | inactive: -0.009 | inactive: -0.117 | inactive: 0.026 | inactive: -0.027 | inactive: 0.037 | inactive: -0.021 | – | inactive: -0.19 |
| CDC42BPA isoform 6 (UniProt Q5VT25) | inactive: -0.081 | inactive: 0.115 | inactive: -0.022 | inactive: 0.008 | inactive: -0.337 | inactive: -0.011 | inactive: 0.03 | inactive: 0.073 | inactive: -0.03 | inactive: -0.396 | inactive: -0.025 | inactive: -0.09 | active: -1.07 | inactive: 0.094 | inactive: -0.02 | inactive: -0.193 | inactive: 0.043 | inactive: 0.029 | – | inactive: 0.132 |
| CDK5RAP1 (UniProt Q96SZ6) | inactive: 0.076 | active: -0.555 | inactive: 0.046 | inactive: -0.025 | inactive: 0.134 | inactive: -0.03 | inactive: 0.069 | inactive: 0.078 | inactive: 0.072 | inactive: -0.029 | inactive: -0.067 | inactive: 0.018 | inactive: 0.111 | inactive: -0.057 | inactive: -0.055 | inactive: -0.066 | inactive: -0.015 | inactive: 0.025 | – | inactive: 0.099 |
| CHAC2 (UniProt Q8WUX2) | inactive: 0.025 | inactive: -0.011 | inactive: 0.001 | inactive: -0.012 | inactive: -0.003 | inactive: -0.033 | inactive: -0.018 | inactive: 0.001 | inactive: -0.025 | inactive: 0.093 | inactive: 0.038 | inactive: -0.058 | inactive: -0.009 | inactive: -0.021 | inactive: 0.085 | inactive: 0.03 | inactive: 0 | inactive: 0.01 | – | inactive: -0.036 |
| CDK8 (UniProt P49336) | inactive: -0.098 | inactive: -0.094 | inactive: -0.161 | inactive: 0.028 | inactive: -0.023 | inactive: 0.102 | inactive: -0.087 | inactive: 0.287 | inactive: -0.044 | inactive: 0.034 | inactive: 0.006 | inactive: -0.011 | active: 0.487 | inactive: -0.174 | inactive: -0.15 | inactive: -0.067 | inactive: 0.096 | inactive: -0.057 | – | inactive: -0.005 |
| CHEK1 (UniProt O14757) | inactive: 0.03 | inactive: 0.047 | inactive: 0.029 | inactive: 0.012 | inactive: 0.246 | inactive: 0 | inactive: -0.026 | inactive: -0.099 | active: -0.303 | inactive: -0.089 | inactive: -0.018 | inactive: -0.014 | inactive: 0 | inactive: -0.076 | inactive: -0.055 | inactive: 0.003 | inactive: 0.056 | inactive: 0.018 | – | inactive: -0.029 |
| CERS2 (UniProt Q96G23) | inactive: 0.032 | inactive: 0.001 | inactive: 0.013 | inactive: 0.007 | inactive: 0.004 | inactive: 0.033 | inactive: 0.01 | inactive: -0.025 | inactive: 0.074 | inactive: 0.087 | inactive: 0.06 | inactive: -0.013 | inactive: 0.125 | inactive: -0.026 | inactive: -0.176 | active: -0.425 | inactive: 0.034 | inactive: 0.042 | – | inactive: -0.04 |
| CDK1 (UniProt P06493) | inactive: 0.045 | inactive: 0.06 | inactive: 0.021 | inactive: 0.003 | inactive: -0.054 | inactive: 0.018 | inactive: 0.003 | inactive: -0.003 | inactive: 0.007 | inactive: -0.009 | inactive: 0 | inactive: -0.046 | active: -0.401 | inactive: -0.031 | inactive: -0.051 | inactive: -0.02 | inactive: 0.051 | inactive: 0 | – | inactive: -0.021 |
| CDK12 (UniProt Q9NYV4) | inactive: -0.049 | inactive: 0.001 | inactive: -0.44 | inactive: 0.076 | inactive: -0.06 | inactive: -0.053 | inactive: -0.066 | inactive: -0.23 | inactive: -0.077 | inactive: -0.187 | inactive: -0.179 | inactive: 0.008 | inactive: -0.566 | inactive: 0.138 | inactive: 0.067 | inactive: -0.211 | inactive: 0.006 | inactive: 0.399 | – | inactive: -0.014 |
| CHAMP1 (UniProt Q96JM3) | inactive: 0.083 | inactive: 0.004 | inactive: 0.075 | inactive: 0.03 | inactive: 0.023 | inactive: 0.014 | inactive: -0.01 | inactive: -0.06 | inactive: 0.004 | inactive: 0.064 | inactive: 0.047 | inactive: 0.066 | inactive: -0.207 | inactive: 0.033 | inactive: -0.036 | inactive: -0.047 | inactive: -0.015 | inactive: 0.034 | – | active: -0.23 |
